Data published in article PMC5955167.
These are yes or no findings as the source states them, for the method shown. In cells and extracts the contact can be indirect. Some entries that bind do so weakly or less than the wild type. Tags and fused reporters may be left off the sequences shown.

Target: T1, FLCN-FLAG-WT (Folliculin, wild type) (human) (UniProt Q8NFG4)
T1 sequence: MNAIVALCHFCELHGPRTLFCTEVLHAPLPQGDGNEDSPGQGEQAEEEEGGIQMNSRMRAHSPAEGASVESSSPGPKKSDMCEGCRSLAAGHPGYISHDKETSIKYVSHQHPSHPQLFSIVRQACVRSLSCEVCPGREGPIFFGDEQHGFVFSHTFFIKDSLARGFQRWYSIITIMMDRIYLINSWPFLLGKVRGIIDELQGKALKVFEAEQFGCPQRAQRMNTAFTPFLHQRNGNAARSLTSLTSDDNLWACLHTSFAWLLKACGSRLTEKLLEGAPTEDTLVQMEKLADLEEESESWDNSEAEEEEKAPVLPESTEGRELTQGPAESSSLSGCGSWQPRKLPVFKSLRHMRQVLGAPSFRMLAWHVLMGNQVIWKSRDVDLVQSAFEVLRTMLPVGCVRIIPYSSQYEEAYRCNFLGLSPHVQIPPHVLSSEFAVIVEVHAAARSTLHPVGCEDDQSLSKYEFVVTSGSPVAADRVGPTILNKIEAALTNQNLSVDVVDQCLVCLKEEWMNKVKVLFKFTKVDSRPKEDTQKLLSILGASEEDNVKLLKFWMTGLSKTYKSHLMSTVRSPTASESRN
Experiment: co-IP; FLCN-FLAG (WT or L460QsX25) transiently expressed in HEK293 and immunoprecipitated on anti-FLAG M2 Affinity Gel agarose, 2 hr at 4 C; washed 4 times with lysis buffer (20 mM HEPES pH 7.0, 100 mM NaCl, 1 mM MgCl2, 0.1% NP40); endogenous partners detected by immunoblotting; empty vector as control

B1: Folliculin-interacting protein-1 (FNIP1), endogenous (protein, UniProt Q8TF40 1-1166)
chain: MAPTLFQKLFSKRTGLGAPGRDARDPDCGFSWPLPEFDPSQIRLIVYQDCERRGRNVLFDSSVKRRNEDISVSKLGSDAQVKVFGKCCQLKPGGDSSSSLDSSVTSSSDIKDQCLKYQGSRCSSDANMLGEMMFGSVAMSYKGSTLKIHQIRSPPQLMLSKVFTARTGSSICGSLNTLQDSLEFINQDNNTLKADNNTVINGLLGNIGLSQFCSPRRAFSEQGPLRLIRSASFFAVHSNPMDMPGRELNEDRDSGIARSASLSSLLITPFPSPNSSLTRSCASSYQRRWRRSQTTSLENGVFPRWSIEESFNLSDESCGPNPGIVRKKKIAIGVIFSLSKDEDENNKFNEFFFSHFPLFESHMNKLKSAIEQAMKMSRRSADASQRSLAYNRIVDALNEFRTTICNLYTMPRIGEPVWLTMMSGTPEKNHLCYRFMKEFTFLMENASKNQFLPALITAVLTNHLAWVPTVMPNGQPPIKIFLEKHSSQSVDMLAKTHPYNPLWAQLGDLYGAIGSPVRLARTVVVGKRQDMVQRLLYFLTYFIRCSELQETHLLENGEDEAIVMPGTVITTTLEKGEIEESEYVLVTMHRNKSSLLFKESEEIRTPNCNCKYCSHPLLGQNVENISQQEREDIQNSSKELLGISDECQMISPSDCQEENAVDVKQYRDKLRTCFDAKLETVVCTGSVPVDKCALSESGLESTEETWQSEKLLDSDSHTGKAMRSTGMVVEKKPPDKIVPASFSCEAAQTKVTFLIGDSMSPDSDTELRSQAVVDQITRHHTKPLKEERGAIDQHQETKQTTKDQSGESDTQNMVSEEPCELPCWNHSDPESMSLFDEYFNDDSIETRTIDDVPFKTSTDSKDHCCMLEFSKILCTKNNKQNNEFCKCIETVPQDSCKTCFPQQDQRDTLSILVPHGDKESSDKKIAVGTEWDIPRNESSDSALGDSESEDTGHDMTRQVSSYYGGEQEDWAEEDEIPFPGSKLIEVSAVQPNIANFGRSLLGGYCSSYVPDFVLQGIGSDERFRQCLMSDLSHAVQHPVLDEPIAEAVCIIADMDKWTVQVASSQRRVTDNKLGKEVLVSSLVSNLLHSTLQLYKHNLSPNFCVMHLEDRLQELYFKSKMLSEYLRGQMRVHVKELGVVLGIESSDLPLLAAVASTHSPYVAQILL
With B1 the binding was “binds”.
